# Measured data: PubChem BioAssay AID504791 (Drosophila RNAi Screening Center, 2011)
# Screen: 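Factors in Argonaute-based small RNA production and activity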 (primary screen)
# System: Drosophila S2-derived reporter cells
# Reagents: long dsRNA against Drosophila genes, about 150-250 ng dsRNA per well (siRNA assay); about 80-120 ng (miRNA assay)
# Timing: about 5 days (siRNA assay); about 4 days (miRNA assay)
# Treatment: copper sulfate induction of reporters: 25 µM (siRNA assay); 200 mM stated (miRNA assay), 1-2 days before reading
# Measurement: 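Dual luciferase assay: Renilla to firefly signal ratio in each well, scaled to the mean ratio of its plate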
# Direction: siRNA reporter hit score: higher = 3 marks a strong hit with raised ratio; -3 a strong hit with lowered ratio
# Active means: 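a well was a first-pass pick when its plate-scaled ratio rose above 1.5 (siRNA assay) or 1.6 (miRNA assay), or dropped below 0.6; a gene counted only if two separate dsRNAs agreed on retest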
# The deposit covers about 23,000 reagents; shown is a random part of those with a known target gene and a result. Over the whole deposit, 199 (0.86%) were called active. 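Plate-scaled ratios behind the calls are not deposited; printed light signals are raw; many rows marked increased or decreased are still called inactive.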 Entries without a mark were called inactive. Names joined by + are all predicted targets of the reagent. Further read-outs or replicates are left out here.
target gene,DRSC id,siRNA reporter hit score,stable siRNA reporter change,"stable assay Renilla, run 1 (luminescence)"
CG13965,DRSC02307,,,6970
mir-210 (retired record),DRSC19230,,,4975
CG9304,DRSC04538,,,7739
CG14572,DRSC11733,,,6054
CG12674,DRSC00348,,,7791
CG32333,DRSC08627,,,9950
CG32333,DRSC08629,,,5958
Fmo-2,DRSC04983,,,7655
sle + CG12592,DRSC21387,,,10157
CG31100,DRSC14453,,,7922
CG31100,DRSC14455,,,6516
Rad9,DRSC11263,,,7898
ct,DRSC18757,,,4135
CG42449,DRSC18084,,,4576
Acsx1L,DRSC16014,,,7398
CG33271,DRSC10583,,reporter ratio raised past the hit cutoff,6146
Tmtc2,DRSC00272,,,17401
CR40450 + CG32767,DRSC18387,,,7602
CG13365,DRSC17899,,,6478
Crz,DRSC16615,,,6802
fus,DRSC05569,,,6074
fus,DRSC07107,,,11794
Ir94a,DRSC13538,,,3399
Mcm3,DRSC18679,,,6927
CG11162,DRSC19391,,,5564
CG11162,DRSC22538,,,4348
DUBAI,DRSC07281,,,7411
Nt5b,DRSC19976,,reporter ratio lowered past the hit cutoff,3868
Nt5b,DRSC19977,,,5139
Nt5b,DRSC19978,,,5506
Nt5b,DRSC22588,,,4451
Erk7,DRSC18127,,,4711
Erk7,DRSC18227,,,5504
Erk7,DRSC21895,,,10328
cGlr2,DRSC04017,,,4995
AstA,DRSC14634,,,7548
CR14033,DRSC02358,,,11398
CG7142,DRSC16204,,,6670
CG33288,DRSC11484,,,5767
Lpt,DRSC04291,,,5606
Lpt,DRSC04515,,,35850
CG5254,DRSC18611,,reporter ratio raised past the hit cutoff,8754
CG1850,DRSC06762,,,5919
CG1271,DRSC08290,,,8174
CG8531,DRSC07209,,,8449
LTV1,DRSC05951,,,7520
UQCR-6.4,DRSC06454,,,6298
ND-24,DRSC19960,,,8019
CheA86a,DRSC12839,,,4151
GstD1,DRSC16683,,,7122
Rab39,DRSC17827,,,6300
Prosbeta2,DRSC11257,-3,,7918
ap,DRSC04917,,,20718
CG31661,DRSC00296,,,9261
fz3,DRSC18779,,,5547
CG32450,DRSC11546,,,5563
Gas41,DRSC03156,,,9417
CHOp24,DRSC18310,,,8918
CG8366,DRSC07153,,,6775
CG17752,DRSC15262,,,6487
cni,DRSC03512,,reporter ratio lowered past the hit cutoff,6696
Prm,DRSC08941,,,4403
Prm,DRSC08942,,,4423
Prm,DRSC11255,,,8110
et,DRSC19582,,,6972
RpL22,DRSC18707,,reporter ratio raised past the hit cutoff (active),5007
RpL22,DRSC22819,,,3075
INPP5E,DRSC09723,,,6419
drd,DRSC19343,,,5903
drd,DRSC21466,,,10454
CG11449,DRSC11662,,,8035
Tob,DRSC20294,,,8235
CG9184,DRSC08636,,,4471
CG9184,DRSC22184,,,8846
tbc,DRSC20540,,,5567
tbc,DRSC23084,,,5034
CG14950 (retired record),DRSC08409,,,6111
RpL23A,DRSC08694,,,10272
RpL23A,DRSC22035,,,8361
Trpm,DRSC06629,,,10919
Trpm,DRSC21566,,,10010
Axs,DRSC19333,,,5139
MED31,DRSC12142,,,6591

Reformatted: entries from further up.
CR14033 [DRSC02358]: stable assay Renilla, run 1 (luminescence) = 11398
CG7142 [DRSC16204]: stable assay Renilla, run 1 (luminescence) = 6670
CG33288 [DRSC11484]: stable assay Renilla, run 1 (luminescence) = 5767
Lpt [DRSC04291]: stable assay Renilla, run 1 (luminescence) = 5606
Lpt [DRSC04515]: stable assay Renilla, run 1 (luminescence) = 35850
CG5254 [DRSC18611]: stable siRNA reporter change = reporter ratio raised past the hit cutoff; stable assay Renilla, run 1 (luminescence) = 8754
CG1850 [DRSC06762]: stable assay Renilla, run 1 (luminescence) = 5919
CG1271 [DRSC08290]: stable assay Renilla, run 1 (luminescence) = 8174
CG8531 [DRSC07209]: stable assay Renilla, run 1 (luminescence) = 8449
LTV1 [DRSC05951]: stable assay Renilla, run 1 (luminescence) = 7520
UQCR-6.4 [DRSC06454]: stable assay Renilla, run 1 (luminescence) = 6298
ND-24 [DRSC19960]: stable assay Renilla, run 1 (luminescence) = 8019
CheA86a [DRSC12839]: stable assay Renilla, run 1 (luminescence) = 4151
GstD1 [DRSC16683]: stable assay Renilla, run 1 (luminescence) = 7122
